Measurements taken from patent publication US4607046A, “4-(1-imidazolylmethyl)cinnamic acid hydrochloride monohydrate and pharmaceutical compositions” (Kissei Pharmaceutical Co., Ltd., priority 1981, dated 1986).
“Also recorded” adds a separate entry of the source. Structures can show the parent of a compound that is named as a salt. For at least one compound, name, drawing or mass did not settle the structure.

Columns and labels:
Hygroscopic property = type: physicochemical; conditions: moisture in atmosphere; high or low humidity; hydrochloride monohydrate
[1] = free compound of the prior art; cited from earlier work

In the case of `O=C(O)C=Cc1ccc(Cn2ccnc2)cc1` [4-(1-imidazolylmethyl)cinnamic acid hydrochloride monohydrate], the hygroscopic property (Hygroscopic property) was “no hygroscopic property; also recorded: non-hygroscopic”.
For `O=C(O)C=Cc1ccc(Cn2ccnc2)cc1` [4-(1-imidazolylmethyl)cinnamic acid], the amphoteric character [1] is listed as “amphosteric”.
